Measured values published in the supplement of paper PMC7661543.
The effect of the compound repeats well; differences between the knockouts mostly do not.

System: HCC-38
Test: relative cell number vs DMSO control (72 h) (% of DMSO); higher = less growth inhibition (more cells)
Experimental: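 QMAP-Seq: a pool of 5 breast cancer cell lines (ZR-75-1, SKBR3, HCC-38, MDA-MB-231, BT-20), each carrying 12 doxycycline-inducible Cas9 sgRNA perturbations (11 knockouts plus non-targeting sgNT), was treated with compounds for 72 h at four 10-fold doses (10 nM-10 uM or 1 nM-1 uM range). Barcodes were amplified and sequenced, and cell number was interpolated from 293T spike-in standard curves. The result is expressed as % of the median of DMSO wells. Two biological replicates.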

CN(C)CC[C@H](CSc1ccccc1)Nc1ccc(S(=O)(=O)NC(=O)c2ccc(N3CCN(Cc4ccccc4-c4ccc(Cl)cc4)CC3)cc2)cc1[N+](=O)[O-] [ABT737]
Conditions	relative cell number
sgRNA knockout: sgATF3, 10 nM	111
sgRNA knockout: sgATF3, 100 nM	83.5
sgRNA knockout: sgATF3, 1000 nM	94.6
sgRNA knockout: sgATF3, 10000 nM	50.4
sgRNA knockout: sgATF4, 10 nM	97.1
sgRNA knockout: sgATF4, 100 nM	90.4
sgRNA knockout: sgATF4, 1000 nM	86.5
sgRNA knockout: sgATF4, 10000 nM	80.9
sgRNA knockout: sgATF6, 10 nM	117
sgRNA knockout: sgATF6, 100 nM	91.7
sgRNA knockout: sgATF6, 1000 nM	82.7
sgRNA knockout: sgATF6, 10000 nM	50.1
sgRNA knockout: sgATG7, 10 nM	97.8
sgRNA knockout: sgATG7, 100 nM	89.8
sgRNA knockout: sgATG7, 1000 nM	86.038
sgRNA knockout: sgATG7, 10000 nM	50.2
sgRNA knockout: sgERN1, 10 nM	105
sgRNA knockout: sgERN1, 100 nM	92.8
sgRNA knockout: sgERN1, 1000 nM	91.4
sgRNA knockout: sgERN1, 10000 nM	61.6
sgRNA knockout: sgHSF1, 10 nM	106
sgRNA knockout: sgHSF1, 100 nM	110.6
sgRNA knockout: sgHSF1, 1000 nM	93.7
sgRNA knockout: sgHSF1, 10000 nM	49.5
sgRNA knockout: sgHSF2, 10 nM	110
sgRNA knockout: sgHSF2, 100 nM	95.4
sgRNA knockout: sgHSF2, 1000 nM	101
sgRNA knockout: sgHSF2, 10000 nM	54.1
sgRNA knockout: sgKEAP1, 10 nM	98.1
sgRNA knockout: sgKEAP1, 100 nM	112
sgRNA knockout: sgKEAP1, 1000 nM	115
sgRNA knockout: sgKEAP1, 10000 nM	50.7
sgRNA knockout: sgNFE2L2, 10 nM	96
sgRNA knockout: sgNFE2L2, 100 nM	87
sgRNA knockout: sgNFE2L2, 1000 nM	84.9
sgRNA knockout: sgNFE2L2, 10000 nM	67.9
sgRNA knockout: sgSLC35F2, 10 nM	96.9
sgRNA knockout: sgSLC35F2, 100 nM	92.5
sgRNA knockout: sgSLC35F2, 1000 nM	77.27
sgRNA knockout: sgSLC35F2, 10000 nM	60.5
sgRNA knockout: sgXBP1, 10 nM	95.5
sgRNA knockout: sgXBP1, 100 nM	90.2
sgRNA knockout: sgXBP1, 1000 nM	82.5
sgRNA knockout: sgXBP1, 10000 nM	52.7

Cc1onc(-c2ccccc2)c1-c1ccc(S(N)(=O)=O)cc1 [Valdecoxib]
Conditions	relative cell number
sgRNA knockout: sgATF3, 10 nM	114
sgRNA knockout: sgATF3, 100 nM	88.8
sgRNA knockout: sgATF3, 1000 nM	98.01
sgRNA knockout: sgATF3, 10000 nM	86.4
sgRNA knockout: sgATF4, 10 nM	116
sgRNA knockout: sgATF4, 100 nM	99.4
sgRNA knockout: sgATF4, 1000 nM	91.3
sgRNA knockout: sgATF4, 10000 nM	92.9
sgRNA knockout: sgATF6, 10 nM	90.6
sgRNA knockout: sgATF6, 100 nM	102
sgRNA knockout: sgATF6, 1000 nM	122
sgRNA knockout: sgATF6, 10000 nM	107.45
sgRNA knockout: sgATG7, 10 nM	108
sgRNA knockout: sgATG7, 100 nM	99.3
sgRNA knockout: sgATG7, 1000 nM	96.6
sgRNA knockout: sgATG7, 10000 nM	94.1
sgRNA knockout: sgERN1, 10 nM	105
sgRNA knockout: sgERN1, 100 nM	97.7
sgRNA knockout: sgERN1, 1000 nM	103
sgRNA knockout: sgERN1, 10000 nM	98.5
sgRNA knockout: sgHSF1, 10 nM	100
sgRNA knockout: sgHSF1, 100 nM	105
sgRNA knockout: sgHSF1, 1000 nM	100
sgRNA knockout: sgHSF1, 10000 nM	102
sgRNA knockout: sgHSF2, 10 nM	118
sgRNA knockout: sgHSF2, 100 nM	97.9
sgRNA knockout: sgHSF2, 1000 nM	104.2
sgRNA knockout: sgHSF2, 10000 nM	97.9
sgRNA knockout: sgKEAP1, 10 nM	100
sgRNA knockout: sgKEAP1, 100 nM	105
sgRNA knockout: sgKEAP1, 1000 nM	104.6
sgRNA knockout: sgKEAP1, 10000 nM	109
sgRNA knockout: sgNFE2L2, 10 nM	108
sgRNA knockout: sgNFE2L2, 100 nM	95.7
sgRNA knockout: sgNFE2L2, 1000 nM	91.7
sgRNA knockout: sgNFE2L2, 10000 nM	94
sgRNA knockout: sgSLC35F2, 10 nM	119
sgRNA knockout: sgSLC35F2, 100 nM	88.3
sgRNA knockout: sgSLC35F2, 1000 nM	99.5
sgRNA knockout: sgSLC35F2, 10000 nM	97
sgRNA knockout: sgXBP1, 10 nM	112
sgRNA knockout: sgXBP1, 100 nM	98.4
sgRNA knockout: sgXBP1, 1000 nM	94.2
sgRNA knockout: sgXBP1, 10000 nM	95.1

CN1C(=O)C(Cc2c[nH]c3ccccc23)NC1=S (configuration not stated) [Necrostatin1]
Conditions	relative cell number
sgRNA knockout: sgATF3, 10 nM	115
sgRNA knockout: sgATF3, 100 nM	99.6
sgRNA knockout: sgATF3, 1000 nM	99.5
sgRNA knockout: sgATF3, 10000 nM	99
sgRNA knockout: sgATF4, 10 nM	98.9
sgRNA knockout: sgATF4, 100 nM	103
sgRNA knockout: sgATF4, 1000 nM	102
sgRNA knockout: sgATF4, 10000 nM	94.3
sgRNA knockout: sgATF6, 10 nM	118
sgRNA knockout: sgATF6, 100 nM	94.3
sgRNA knockout: sgATF6, 1000 nM	87.7
sgRNA knockout: sgATF6, 10000 nM	81.6
sgRNA knockout: sgATG7, 10 nM	105
sgRNA knockout: sgATG7, 100 nM	95
sgRNA knockout: sgATG7, 1000 nM	100
sgRNA knockout: sgATG7, 10000 nM	97.1
sgRNA knockout: sgERN1, 10 nM	106.4
sgRNA knockout: sgERN1, 100 nM	102
sgRNA knockout: sgERN1, 1000 nM	89.8
sgRNA knockout: sgERN1, 10000 nM	95.3
sgRNA knockout: sgHSF1, 10 nM	81.5
sgRNA knockout: sgHSF1, 100 nM	90.9
sgRNA knockout: sgHSF1, 1000 nM	91.3
sgRNA knockout: sgHSF1, 10000 nM	74
sgRNA knockout: sgHSF2, 10 nM	113
sgRNA knockout: sgHSF2, 100 nM	99.1
sgRNA knockout: sgHSF2, 1000 nM	91.5
sgRNA knockout: sgHSF2, 10000 nM	87.9
sgRNA knockout: sgKEAP1, 10 nM	109
sgRNA knockout: sgKEAP1, 100 nM	99.4
sgRNA knockout: sgKEAP1, 1000 nM	88.3
sgRNA knockout: sgKEAP1, 10000 nM	83.3
sgRNA knockout: sgNFE2L2, 10 nM	108
sgRNA knockout: sgNFE2L2, 100 nM	92.4
sgRNA knockout: sgNFE2L2, 1000 nM	94.8
sgRNA knockout: sgNFE2L2, 10000 nM	91.7
sgRNA knockout: sgSLC35F2, 10 nM	102
sgRNA knockout: sgSLC35F2, 100 nM	92.4
sgRNA knockout: sgSLC35F2, 1000 nM	103
sgRNA knockout: sgSLC35F2, 10000 nM	104
sgRNA knockout: sgXBP1, 10 nM	109
sgRNA knockout: sgXBP1, 100 nM	93.7
sgRNA knockout: sgXBP1, 1000 nM	101
sgRNA knockout: sgXBP1, 10000 nM	106
